# Whole data set: some 33,000 sequences, median “E-score (-0.5 to 0.5)” near -8e-05, cut for the highest 2% near 0.23. The list shows a part of the results.
# Target: T1, Nrg2 (UniProt P38082)
# T1 sequence: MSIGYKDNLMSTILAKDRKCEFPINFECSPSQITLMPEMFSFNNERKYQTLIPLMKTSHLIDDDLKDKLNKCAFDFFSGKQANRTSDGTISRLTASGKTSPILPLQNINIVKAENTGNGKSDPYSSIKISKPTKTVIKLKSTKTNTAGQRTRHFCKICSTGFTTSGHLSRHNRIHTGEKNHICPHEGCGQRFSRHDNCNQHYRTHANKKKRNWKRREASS
# Assay: PBM E-score (8-mer binding enrichment) (E-score (-0.5 to 0.5)); higher = stronger / more preferred TF binding
# Details: protein concentration: 100 nM; construct: GST-full length
# Procedure: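 Universal 'all 10-mer' protein binding microarrays (Agilent AMADID 015681) probed with GST-tagged S. cerevisiae TFs (full-length or DBD) made by in vitro transcription/translation (PURExpress), about 100-200 nM. Bound TF was detected with fluorescent anti-GST. Each ungapped 8-mer (which stands for itself and its reverse complement) is scored by the PBM enrichment score (E-score), a modified Wilcoxon-Mann-Whitney statistic from -0.5 to +0.5, computed with the Universal PBM Analysis Suite. Scale: above 0.35 generally sequence-specific binding.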
row,Sequence,PBM E-score
1,CGGGCAAG,-0.0274
2,TACTTCAA,0.141
3,CTACTGAA,0.029
4,CCTACCTC,-0.0933
5,CCCATAGC,-0.197
6,ATGACCCA,0.117
7,CTATATTA,0.229
8,AGGGGACA,0.115
9,ATTGTAGG,0.164
10,CCCTGGAG,0.05
11,CCAAATTC,-0.0464
12,ATACGTAC,0.00735
13,AAGAAGTG,0.0261
14,ATTACAGA,0.0258
15,CGTTCATC,0.0838
16,CATGTCTC,0.096
17,CAAGGTAC,-0.172
18,CGTCTGAG,-0.0469
19,CGATAAGA,0.011
20,ATAATTGC,-0.0381
21,CAACGTAA,-0.00815
22,AGAGTTGG,-0.0532
23,GGTGGCAA,-0.0648
24,CCCTGAGC,0.236
25,AGCTTATA,-0.16

row,Sequence,PBM E-score
1,ACTTCACC,0.0737
2,ACCATCAG,-0.0223
3,CATTGGAA,-0.12
4,AATCTCCA,-0.12
5,CAAAGTAG,0.131
6,CGGGGGAC,-0.242
7,ACTATAGG,-0.141
8,ACTCGACT,-0.0411
9,GACTTCTA,-0.172
10,AGGCAGAC,-0.301
11,AGTGAAAT,-0.0857
12,CCTAAGTC,-0.1
13,GAGCCCAC,0.0222
14,CCTGAACA,0.0917
15,ACGGTGGA,-0.28
16,CCTCTAAG,-0.284
17,CTGGCCTC,0.0475
18,GGGCGTAA,-0.104
19,AACTTCAG,-0.0604
20,AGGAGTTC,-0.145
21,CGCAAACC,-0.0317
22,GTGATTGA,0.137
23,AAGTGTAC,-0.0336
24,GGTTGAAA,-0.012
25,CGCGAGAC,0.0211

row,Sequence,PBM E-score
1,CCCATGTA,-0.0172
2,AGGCATGC,-0.0808
3,AAACCCGA,0.129
4,ACCTGCTG,0.087
5,AAGGAAGA,-0.176
6,GGCCTCTA,-0.123
7,TCCATGGA,0.0892
8,GAGATAGA,-0.0355
9,ATCAAGTG,0.0907
10,AAATGCAC,0.0576
11,TATGCCCA,-0.0182
12,TAGTGTAA,0.0333
13,CCATATTA,0.168
14,CGCGCAAA,0.179
15,AAGGGCCA,-0.0108
16,TCCACTAA,0.0895
17,CTGGGTAA,-0.097
18,CGCCCGAG,0.117
19,ACTGCGTA,-0.188
20,ATAACATA,0.123
21,ACTCCTAA,-0.0667
22,AATGGCCA,-0.0344
23,ACCCCGAT,0.00354
24,AGCTTTCA,-0.0208
25,AAGTGCTA,-0.228

row,Sequence,PBM E-score
1,GGTTGGAC,-0.311
2,CGACGGTC,-0.00827
3,CAAACAGC,0.00877
4,AGCGTCGA,0.244
5,CACCTTGC,-0.00716
6,AAGGGAGA,-0.19
7,CAAACAAA,0.115
8,TGGCTACA,-0.0811
9,CTCATCAC,-0.0539
10,GATCATGA,0.0344
11,GCTGCATA,0.0217
12,TCCGGTCA,-0.205
13,AATGTGCT,0.0416
14,AGGGCCTA,0.0285
15,CTGGCATC,-0.131
16,ACGCTTTC,-0.0464
17,AAGGTATC,-0.00466
18,CTGGCGTA,-0.254
19,CTATGGTC,-0.123
20,AATCCGCA,0.0889
21,ATACACGC,-0.0419
22,ATCGGGTG,0.18
23,CTGCCCCA,0.177
24,GAAACTAA,0.0535
25,GCTATGAA,0.0927

row,Sequence,PBM E-score
1,GTCCAGTA,-0.0597
2,ATTGTACG,-0.133
3,AACACAAT,0.047
4,CACTACTG,0.077
5,GAAGGCCA,-0.231
6,AATAACAA,0.11
7,CCAAGCCA,0.023
8,TCGTACAA,0.0884
9,AAGAAAAG,-0.0237
10,GGGGCGTA,0.0216
11,CACTACCG,-0.163
12,CCGGCTGA,0.00157
13,ACTTTGTC,0.18
14,CCAGCTCA,-0.0387
15,ATCTTATA,0.141
16,ATTGACCG,0.0282
17,CCCAGATA,0.0196
18,ACAGCCGC,-0.0625
19,CAACGCGG,-0.00072
20,ACCATTCA,0.026
21,GGTGCGAA,-0.0456
22,TCGACACA,-0.0859
23,ATAGAGTA,0.00415
24,AAGATAGT,0.114
25,GGTTCAAC,0.0418

# Individual results from the entries so far.
# PBM E-score with TACTTCAA reads 0.141
# PBM E-score with CGCCCGAG reads 0.117
# PBM E-score with AACTTCAG reads -0.0604
# PBM E-score with AAGGTATC reads -0.00466
# PBM E-score with ATAGAGTA reads 0.00415

# The list goes on:

row,Sequence,PBM E-score
1,GAACACGA,0.0925
2,ACAAGCCG,-0.0546
3,AATGGTGG,-0.11
4,ACTGTCGG,-0.173
5,AATGAAAA,0.22
6,ATCACGTC,0.102
7,AGACTGTA,-0.0422
8,AGGTTATC,-0.201
9,CCGTCCAC,0.0937
10,TCCTGAAA,-0.0476
11,GTGGCGCA,-0.0518
12,CTACGATA,0.105
13,CCTATTCC,-0.0058
14,GCTCTAAA,-0.134
15,ATAAAAGA,-0.0556
16,GCGTCGGA,-0.0704
17,AGATCGGG,-0.15
18,AATGATTG,0.072
19,AGGTTCGA,0.125
20,ACAAAGCC,-0.0268
21,TAAACACA,-0.00404
22,ATGTCAAC,0.00895
23,AGGATCCG,0.0892
24,AGTCGGAA,-0.0122
25,TCCAGCAA,-0.151

# Fetched one by one from above, 5 records:
row,Sequence,PBM E-score
13,CCTATTCC,-0.0058
9,CCGTCCAC,0.0937
22,ATGTCAAC,0.00895
12,CTACGATA,0.105
25,TCCAGCAA,-0.151

# The list goes on:

row,Sequence,PBM E-score
1,GGGTGACA,-0.098
2,AGCAGAAT,0.174
3,CGGTTTAG,-0.052
4,GCTATGGA,-0.0664
5,AGGGAACT,0.109
6,GACGGACC,0.183
7,ATGAATAA,0.01
8,CGCGCATC,-0.0673
9,ACGCAGAT,0.041
10,CTCCTTCC,-0.292
11,ATCTGGGA,-0.204
12,CAAGGGCG,-0.0774
13,CAAGATTC,0.0777
14,CTGCTTGA,-0.0823
15,ACGCTTGG,0.0272
16,ATATATGC,0.18
17,AGATAGAC,0.0287
18,GAATCAGA,0.23
19,AGCTAACT,-0.0159
20,ACAGTATC,0.0374
21,AGTCAAGC,-0.111
22,ACGCGCCA,-0.0963

# Source: the supplement of paper PMC3334620
